According to publication PMC12264102:
No constants are given. Whether binding was seen depends on the method and setting. In cells and extracts the contact can be indirect. Some results given as binding are weak or reduced against the parent protein; the word gives no strength. Sequences can lack the tags named with a protein.

Target: T1, OTUD1-FLAG (pcDNA3.1-OTUD1-FLAG) (UniProt Q5VV17)
T1 sequence: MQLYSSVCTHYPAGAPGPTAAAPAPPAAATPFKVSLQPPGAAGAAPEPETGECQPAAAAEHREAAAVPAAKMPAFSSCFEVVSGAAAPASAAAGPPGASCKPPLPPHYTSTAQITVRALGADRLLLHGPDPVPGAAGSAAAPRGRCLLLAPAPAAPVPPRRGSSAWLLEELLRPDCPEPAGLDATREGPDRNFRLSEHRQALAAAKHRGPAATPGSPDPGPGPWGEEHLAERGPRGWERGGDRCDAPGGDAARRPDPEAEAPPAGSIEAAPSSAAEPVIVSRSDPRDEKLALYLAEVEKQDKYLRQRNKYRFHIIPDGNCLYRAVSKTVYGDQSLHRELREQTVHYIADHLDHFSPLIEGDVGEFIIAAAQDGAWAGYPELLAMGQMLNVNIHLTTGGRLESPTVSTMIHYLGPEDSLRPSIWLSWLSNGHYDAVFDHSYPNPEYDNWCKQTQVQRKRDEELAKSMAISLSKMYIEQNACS
Assay: co-IP; exogenous OTUD1 and SLC25A11; sonicated cell lysate in IP lysis buffer, 3 ug antibody overnight at 4 °C, Protein A/G magnetic beads, western blot

- binding: binds
B1: SLC25A11-HA (pcDNA3.1-SLC25A11-HA) (protein, UniProt Q02978 1-314)
chain: MAATASAGAGGIDGKPRTSPKSVKFLFGGLAGMGATVFVQPLDLVKNRMQLSGEGAKTREYKTSFHALTSILKAEGLRGIYTGLSAGLLRQATYTTTRLGIYTVLFERLTGADGTPPGFLLKAVIGMTAGATGAFVGTPAEVALIRMTADGRLPADQRRGYKNVFNALIRITREEGVLTLWRGCIPTMARAVVVNAAQLASYSQSKQFLLDSGYFSDNILCHFCASMISGLVTTAASMPVDIAKTRIQNMRMIDGKPEYKNGLDVLFKVVRYEGFFSLWKGFTPYYARLGPHTVLTFIFLEQMNKAYKRLFLSG
